The source of these data is paper PMC6773690, “Scribble co-operatively binds multiple α1D-adrenergic receptor C-terminal PDZ ligands” (Scientific Reports, 2019).

Sequences of proteins named here, by UniProt entry; tags and fusion partners are left off. A change or cut given only in a name is not applied to a line headed by its entry.
UniProt P25100: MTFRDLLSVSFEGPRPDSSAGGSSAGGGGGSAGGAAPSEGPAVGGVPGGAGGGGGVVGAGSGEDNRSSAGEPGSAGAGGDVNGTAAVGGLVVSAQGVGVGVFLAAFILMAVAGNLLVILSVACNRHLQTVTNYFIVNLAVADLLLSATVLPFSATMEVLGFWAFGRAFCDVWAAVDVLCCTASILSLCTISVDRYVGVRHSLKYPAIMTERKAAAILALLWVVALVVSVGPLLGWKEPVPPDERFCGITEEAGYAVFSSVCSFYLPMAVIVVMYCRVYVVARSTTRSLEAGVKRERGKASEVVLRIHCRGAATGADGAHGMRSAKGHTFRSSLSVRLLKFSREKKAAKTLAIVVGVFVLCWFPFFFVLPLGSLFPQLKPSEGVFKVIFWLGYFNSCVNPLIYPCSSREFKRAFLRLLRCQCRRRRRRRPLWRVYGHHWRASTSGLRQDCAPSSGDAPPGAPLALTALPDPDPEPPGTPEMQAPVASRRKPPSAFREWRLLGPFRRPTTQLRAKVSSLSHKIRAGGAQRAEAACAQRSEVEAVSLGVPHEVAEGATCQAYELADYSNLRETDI

This test deals with GST-SCRIB containing all 4 PDZ domains (WT). Nature of the test: pull-down; SNAP GST-pulldown: 1 μM GST-tagged SCRIB proteins on glutathione agarose beads with serial dilutions of BG-782-labeled SNAP-α1D-CT, 1 h at 4 °C; washes 20 mM Tris-HCl pH 8.0, 200 mM NaCl, 0.05% NP-40; PAGE NIR; both purified.

Results are given in words; binding and its absence hold for the method and conditions named. Binding can be weak; no strength is given. Sequences can lack the tags named with a protein.

As for QAYELADYSNLRETDI (peptide, UniProt P25100 557-572, SNAP tag labeled with the SNAP substrate BG-782), the binding entry is “binds”.
